“And” between values parts separate entries of the source, which are not always exact repeats. Equal entries are not always repeated. Some results were stated once for a whole list of compounds, not compound by compound.
How the values were obtained:
[1] = molecular target: T1, human H1 receptor (Homo sapiens, UniProt P35367); assay: Histamine H1 functional antagonist assay (FLIPR, cell fluorescence); format: cell-based; conditions: CHO cells expressing human H1 receptor, histamine at EC80
T1 construct: expressed in transfected cells

The chains behind the UniProt entries cited, without tags or fusion partners. Where a name states a change or a piece, a line headed by the entry shows the natural chain unless it says otherwise.
UniProt P35367, whole entry: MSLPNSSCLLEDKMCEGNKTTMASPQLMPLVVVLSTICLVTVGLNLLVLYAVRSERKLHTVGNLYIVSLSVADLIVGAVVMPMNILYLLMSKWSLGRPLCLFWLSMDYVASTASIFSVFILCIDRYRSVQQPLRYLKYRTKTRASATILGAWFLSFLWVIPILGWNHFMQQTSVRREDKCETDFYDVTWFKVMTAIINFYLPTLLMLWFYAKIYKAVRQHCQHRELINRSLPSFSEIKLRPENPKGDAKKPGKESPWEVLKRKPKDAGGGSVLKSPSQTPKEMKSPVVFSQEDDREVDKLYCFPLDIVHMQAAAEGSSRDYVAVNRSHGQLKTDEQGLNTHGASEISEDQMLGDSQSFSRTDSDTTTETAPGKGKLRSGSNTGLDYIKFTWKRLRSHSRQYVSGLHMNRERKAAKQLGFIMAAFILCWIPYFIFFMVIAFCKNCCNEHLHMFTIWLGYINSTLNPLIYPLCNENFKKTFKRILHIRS
UniProt Q9Y5N1: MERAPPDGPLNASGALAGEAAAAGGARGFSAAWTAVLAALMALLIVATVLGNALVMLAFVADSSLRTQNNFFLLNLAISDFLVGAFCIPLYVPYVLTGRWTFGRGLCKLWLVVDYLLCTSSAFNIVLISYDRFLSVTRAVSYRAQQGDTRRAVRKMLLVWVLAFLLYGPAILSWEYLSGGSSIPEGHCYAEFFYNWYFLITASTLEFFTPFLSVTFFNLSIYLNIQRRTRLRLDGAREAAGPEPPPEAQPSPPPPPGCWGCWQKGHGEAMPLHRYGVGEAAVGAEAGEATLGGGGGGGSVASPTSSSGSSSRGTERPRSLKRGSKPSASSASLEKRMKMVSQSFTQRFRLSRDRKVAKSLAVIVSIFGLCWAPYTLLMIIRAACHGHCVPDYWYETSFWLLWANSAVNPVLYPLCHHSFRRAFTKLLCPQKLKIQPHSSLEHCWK

[2] = molecular target: T2, histamine H3 receptor (Homo sapiens, UniProt Q9Y5N1); assay: Histamine H3 functional antagonist assay (method A), [35S]-GTPγS SPA on membranes; format: biochemical; conditions: histamine at EC80
T2 construct: expressed in transfected cells; host or cells: CHO K1 cells carrying pSwitch, transfected with pGeneH3; mifepristone-induced; clone 3H3; membranes

[3] = molecular target: T2, histamine H3 receptor; assay: Histamine H3 functional antagonist assay (method B), [35S]-GTPγS SPA on membranes; format: biochemical; conditions: histamine at EC80

SMILES	antagonism in the histamine H1 functional antagonist assay [1] [pKb]	antagonism in the histamine H3 functional antagonist assay (method A) [2]	antagonism in the histamine H3 functional antagonist assay (method B) [3] [PKb]
N#Cc1ccc(C(=O)N2CCC(c3ccc4c(c3)CCN(C3CCC3)CC4)CC2)cn1 [Example E207, 5-{[4-(3-cyclobutyl-2,3,4,5-tetrahydro-1H-3-benzazepin-7-yl)-1-piperidinyl]carbonyl}-2-pyridinecarbonitrile]	< 6.3	> 9.0 pKb and > 6.5 pKb	> 8.5
Cc1ccc(N2CCC(c3ccc4c(c3)CCN(C3CCC3)CC4)CC2)cn1 [Example E221, 3-cyclobutyl-7-[1-(6-methyl-3-pyridinyl)-4-piperidinyl]-2,3,4,5-tetrahydro-1H-3-benzazepine]	< 6.3		> 8.5
Cc1ccc(C(=O)N2CCC(c3ccc4c(c3)CCN(C3CCC3)CC4)CC2)cn1 [Example E220, 3-cyclobutyl-7-{1-[(6-methyl-3-pyridinyl)carbonyl]-4-piperidinyl}-2,3,4,5-tetrahydro-1H-3-benzazepine]	< 6.3		> 8.5
Cc1nnc(-c2cccc(S(=O)(=O)N3CCN(c4ccc5c(c4)CCN(C4CCCC4)CC5)CC3)c2)o1 [Example E85, 3-Cyclopentyl-7-(4-{[3-(5-methyl-1,3,4-oxadiazol-2-yl)phenyl]sulfonyl}-1-piperazinyl)-2,3,4,5-tetrahydro-1H-3-benzazepine]	< 6.3	> 6.5 pKb	
Cc1c(S(=O)(=O)N2CCN(c3ccc4c(c3)CCN(C3CCCC3)CC4)CC2)cnn1-c1ccccc1 [Example E74, 3-Cyclopentyl-7-{4-[(5-methyl-1-phenyl-1H-pyrazol-4-yl)sulfonyl]-1-piperazinyl}-2,3,4,5-tetrahydro-1H-3-benzazepine]	< 6.3	> 6.5 pKb	
O=C(/C=C/c1ccccc1)N1CCN(c2ccc3c(c2)CCN(C2CCCC2)CC3)CC1.O=C(O)C(F)(F)F [Example E134, 3-Cyclopentyl-7-{4-[(2E)-3-phenyl-2-propenoyl]-1-piperazinyl}-2,3,4,5-tetrahydro-1H-3-benzazepine trifluoroacetate salt]	< 6.3	> 6.5 pKb	
O=C(Nc1ccc(F)cc1)N1CCN(c2ccc3c(c2)CCN(C2CCC2)CC3)CC1 [Example E240, 4-(3-cyclobutyl-2,3,4,5-tetrahydro-1H-3-benzazepin-7-yl)-N-(4-fluorophenyl)-1-piperazinecarboxamide]	< 6.3	> 9.0 pKb and > 6.5 pKb	
Cc1c(Cl)cccc1S(=O)(=O)N1CCN(c2ccc3c(c2)CCN(C2CCCC2)CC3)CC1 [Example E58, 7-{4-[(3-Chloro-2-methylphenyl)sulfonyl]-1-piperazinyl}-3-cyclopentyl-2,3,4,5-tetrahydro-1H-3-benzazepine]	< 6.3	> 6.5 pKb	
O=S(=O)(CC(F)(F)F)N1CCN(c2ccc3c(c2)CCN(C2CCCC2)CC3)CC1 [Example E38, 3-Cyclopentyl-7-{4-[(2,2,2-trifluoroethyl)sulfonyl]-1-piperazinyl}-2,3,4,5-tetrahydro-1H-3-benzazepine]	< 6.3	> 6.5 pKb	
CC(=O)Nc1ccc(S(=O)(=O)N2CCN(c3ccc4c(c3)CCN(C3CCCC3)CC4)CC2)cc1 [Example E47, N-(4-{[4-(3-Cyclopentyl-2,3,4,5-tetrahydro-1H-3-benzazepin-7-yl)-1-piperazinyl]sulfonyl}phenyl)acetamide]	< 6.3	> 6.5 pKb	
N#Cc1ccc(NC(=S)N2CCC(c3ccc4c(c3)CCN(C3CCC3)CC4)CC2)cc1 [Example E238, N-(4-Cyanophenyl)-4-(3-cyclobutyl-2,3,4,5-tetrahydro-1H-3-benzazepin-7-yl)-1-piperidinecarbothioamide]	< 6.3	> 9.0 pKb and > 6.5 pKb	
FC(F)(F)c1ccc(N2CCC(c3ccc4c(c3)CCN(C3CCCC3)CC4)CC2)cn1 [Example E231, 3-Cyclopentyl-7-{1-[6-(trifluoromethyl)-3-pyridinyl]-4-piperidinyl}-2,3,4,5-tetrahydro-1H-3-benzazepine]	< 6.3	> 6.5 pKb	
O=S(=O)(CCc1cccc2ccccc12)N1CCN(c2ccc3c(c2)CCN(C2CCCC2)CC3)CC1 [Example E49, 3-Cyclopentyl-7-(4-{[2-(1-naphthalenyl)ethyl]sulfonyl}-1-piperazinyl)-2,3,4,5-tetrahydro-1H-3-benzazepine]	< 6.3	> 6.5 pKb	
N#Cc1ccc(N2CCC(c3ccc4c(c3)CCN(C3CCC3)CC4)CC2)cc1 [Example E224, 4-[4-(3-cyclobutyl-2,3,4,5-tetrahydro-1H-3-benzazepin-7-yl)-1-piperidinyl]benzonitrile]	< 6.3	> 9.0 pKb and > 6.5 pKb	
O=C(c1ccc(F)cc1)N1CCC(c2ccc3c(c2)CCN(C2CCC2)CC3)CC1 [Example E210, 3-cyclobutyl-7-{1-[(4-fluorophenyl)carbonyl]-4-piperidinyl}-2,3,4,5-tetrahydro-1H-3-benzazepine]	< 6.3	> 9.0 pKb and > 6.5 pKb	

— US20070185089A1, “Benzazepine derivatives for the treatment of neurological and psychiatric disorders” (Glaxo Group Limited, priority 2004, published 2007)
